From patent publication US20200123499A1 (MIT, published 2020)
No constants are given. Whether binding was seen depends on the method and setting. Some entries that bind do so weakly or less than the wild type.

The chains behind the UniProt entries cited, without tags or fusion partners. Where a name states a change or a piece, a line headed by the entry shows the natural chain unless it says otherwise.
UniProt G5EEG9: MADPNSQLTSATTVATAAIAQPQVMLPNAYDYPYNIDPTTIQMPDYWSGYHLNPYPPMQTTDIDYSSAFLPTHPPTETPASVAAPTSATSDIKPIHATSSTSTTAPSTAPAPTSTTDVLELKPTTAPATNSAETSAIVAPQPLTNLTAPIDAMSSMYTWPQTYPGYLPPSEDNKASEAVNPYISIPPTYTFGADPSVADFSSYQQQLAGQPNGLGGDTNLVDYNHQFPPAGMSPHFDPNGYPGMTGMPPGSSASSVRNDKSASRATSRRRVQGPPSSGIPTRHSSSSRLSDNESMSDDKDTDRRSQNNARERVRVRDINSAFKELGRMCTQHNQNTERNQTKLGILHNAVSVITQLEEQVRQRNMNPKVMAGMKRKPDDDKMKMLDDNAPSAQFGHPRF

Tests used:
HLH-2 (C. elegans) [1] = molecular target: HLH-2 (C. elegans) (UniProt G5EEG9); assay: yeast two-hybrid (legend of FIG. 3D)
HLH-2 (C. elegans) [2] = molecular target: HLH-2 (C. elegans) (UniProt G5EEG9); assay: yeast two-hybrid

B1: DPY-22 PQ-rich domain (protein, C. elegans, UniProt Q20497 2142-3498, looked up)
chain: QTTRLDKVAKNVQNVLRSNMHHTHVLEFNRPQLLMSDNMFDDIFLAPPDIEITKIIEQPVPVIDEEEAKKRAEEEKEAAEKKEESKNAEDEKNKNNAENKKDTKEGEKGKSKDKEKDGEKEKCKDASKKDDVTSEKNELEKRASDAAAATNAPETNKDMDTSTPKPAPVTRSPATRGRGGGRKRNSGARGGGPRAKRANSRADTAQAAAATTQWNAPIANTSNPAAGGNFHAAMRGNQPPMSNGSSDETKVHIRNLLNRKKEEKRNSLADASAAAAAANSNAMGNTSSMPPSGPPMPMGSSMQSAGATQQLQGMQKHQMGGSMSGMNQNMGGMNQSMSHQAPPPYSSTNEMNRPLMNQYGGPHFAAPNPGPLNRSSGPVSSETRQQIMEQQMREKLAAHHQLVEQQKQRDAREREAREREAREHQERMQREAYMKEQQLLERKRAIEENNRIMEEQQREREMEAARKEAARRAAEEAYAAEQQRLELLRRQEEERLRKEAEERMRIQRENEERVRQEQMRLEAEERERIRRAEEERIQKELEDKVRREKEEAARQEKERQEQEARMREAREAELSRQRMEQQRRSQQNPYMNQQGQYSQQPPPSYQQSSYPNNYQPGQQGNQPPNYQQPSHQSMQQGHQAGYQQTSNQMQMNMQQQQNRQQGGPQQSFSGPGGINQPSQPGYSGYNQQGGQGQQGQMQQQRNPFGNQQDMQQPGAAKLMHAKPNEAHAQQYQHTQNQLSLAQKEKEKQYFQAKNLQASQANAQQQQQRFGDVVAGNVAGYGRPYGQQQLGASDQMGTSQLPGASTSRMNQGSSNPQGGMQSYQQQQPVLGQPGPIQTGQSTQQQIPAQSQQQYNSGRPQMHTTPTKNDMSARAPSGAMGQIANRMGHGTNPQGYGSTGQNVPGGYQQGQQQSGQGSYPQAQQQQPNQYSGSNQQVGQQAQQQQQQPLNQNVSQSQSAAQFGRPSQDSAYQQSGYNQTGNQSYQRPDQQQQGAQQNQWSGSNQAQNQLRSQQQAQQPLQQPQQSQQFQQPAQQAKNPMAQSAQYGGFGGQQQGYDQQQQGQIAPQQAQNPQASQSYGQQQTQQNRYGMGSSGYTANSGGSSNILNQSMEESGLNQGFSGASSNASSQQGGSSQMQQSGYGMPGNQMQMQQNQKQQVQRGMPTGMGQTNMGQSGMGQSGMGQTGMSRSGLGGGIGQQGQQSQQPQQPQVSQQQNQRGMNPGAQLPPYSTGQQQHQPQQSQISQQQQQQDQYRRMQAAQMQQQPTAQGQQNRMGMPSQQQSGAAYSNQMQFQGVRQGQQGMGGMGGSGQQQPQTQPHGSNQYYQQQQDQRMQQQPQQPGQQQQHGYGMGQYPNQQPPNQY
Q: Which results are given for B1?
A: binding (HLH-2 (C. elegans) [1]): binds; binding (HLH-2 (C. elegans) [2]): binds
